Here are results for one substance from paper PMC10393996.

Protein sequences, listed by entry. Tags and fused reporters are not part of them.
UniProt P06401: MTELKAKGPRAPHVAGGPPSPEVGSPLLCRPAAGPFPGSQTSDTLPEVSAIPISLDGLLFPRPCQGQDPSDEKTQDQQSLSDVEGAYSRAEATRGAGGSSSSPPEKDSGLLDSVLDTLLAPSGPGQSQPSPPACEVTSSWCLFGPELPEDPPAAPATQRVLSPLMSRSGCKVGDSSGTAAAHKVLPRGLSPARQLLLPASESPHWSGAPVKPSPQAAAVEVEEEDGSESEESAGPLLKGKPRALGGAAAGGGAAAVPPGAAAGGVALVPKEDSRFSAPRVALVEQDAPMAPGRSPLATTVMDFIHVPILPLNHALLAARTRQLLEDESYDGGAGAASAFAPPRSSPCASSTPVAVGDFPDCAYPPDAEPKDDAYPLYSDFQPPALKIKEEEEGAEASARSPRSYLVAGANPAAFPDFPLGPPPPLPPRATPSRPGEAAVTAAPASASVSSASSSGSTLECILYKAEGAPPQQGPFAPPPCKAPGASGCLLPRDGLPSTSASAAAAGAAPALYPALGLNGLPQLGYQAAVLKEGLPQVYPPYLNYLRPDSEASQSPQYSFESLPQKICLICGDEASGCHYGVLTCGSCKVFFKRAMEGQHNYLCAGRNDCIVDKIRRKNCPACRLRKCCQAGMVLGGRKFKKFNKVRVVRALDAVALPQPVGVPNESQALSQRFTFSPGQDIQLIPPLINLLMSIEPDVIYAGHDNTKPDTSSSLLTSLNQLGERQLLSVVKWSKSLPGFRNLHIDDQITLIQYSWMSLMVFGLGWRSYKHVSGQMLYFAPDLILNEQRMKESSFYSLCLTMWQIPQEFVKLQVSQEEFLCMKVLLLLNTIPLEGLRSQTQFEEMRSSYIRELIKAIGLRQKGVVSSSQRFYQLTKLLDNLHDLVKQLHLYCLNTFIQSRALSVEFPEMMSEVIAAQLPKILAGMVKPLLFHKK
UniProt Q13263: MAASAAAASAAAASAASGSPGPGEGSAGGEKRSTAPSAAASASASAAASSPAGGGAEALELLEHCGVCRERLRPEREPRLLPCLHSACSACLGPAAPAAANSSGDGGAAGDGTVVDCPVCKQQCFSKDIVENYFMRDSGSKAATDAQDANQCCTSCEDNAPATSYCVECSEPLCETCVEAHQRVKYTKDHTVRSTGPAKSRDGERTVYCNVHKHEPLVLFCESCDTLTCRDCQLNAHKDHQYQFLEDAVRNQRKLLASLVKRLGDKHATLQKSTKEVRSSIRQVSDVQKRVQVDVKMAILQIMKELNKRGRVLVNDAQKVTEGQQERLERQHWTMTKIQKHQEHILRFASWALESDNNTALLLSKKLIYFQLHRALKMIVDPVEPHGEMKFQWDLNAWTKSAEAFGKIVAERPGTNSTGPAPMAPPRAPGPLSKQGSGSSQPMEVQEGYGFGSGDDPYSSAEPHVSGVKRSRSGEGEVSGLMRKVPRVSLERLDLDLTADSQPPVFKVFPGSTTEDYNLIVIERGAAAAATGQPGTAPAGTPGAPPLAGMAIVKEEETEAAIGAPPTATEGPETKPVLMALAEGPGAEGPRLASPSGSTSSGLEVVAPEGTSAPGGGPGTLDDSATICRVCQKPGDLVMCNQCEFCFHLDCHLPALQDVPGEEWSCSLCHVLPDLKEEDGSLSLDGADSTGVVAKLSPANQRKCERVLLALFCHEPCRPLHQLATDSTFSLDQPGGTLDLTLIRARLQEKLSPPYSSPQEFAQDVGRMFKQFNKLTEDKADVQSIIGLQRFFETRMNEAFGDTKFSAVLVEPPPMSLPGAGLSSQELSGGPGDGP

The target of the assay is progesterone receptor (PR), endogenous in primary human endometrial stromal cells (human (endogenous in primary HESCs)) (UniProt P06401). Put plainly: affinity purification with mass spectrometry; RIME: decidual primary HESCs (EPC three days, three donors mixed) fixed by 1% PFA for 8 min; chromatin immunoprecipitated with antibody against PR and protein G magnetic beads; IgG control; LC-MS/MS.

Results are given in words; binding and its absence hold for the method and conditions named. In cells and extracts the contact can be indirect. Here binding means that the protein was enriched with, or labelled near, the bait; the list need not be complete.

On to “TRIM28 (Tripartite motif containing 28), endogenous in primary human endometrial stromal cells (from UniProt Q13263 1-835)”, for which the binding result is given as “binds”.
